Some of the results follow.

Chains of the proteins cited; added tags and fusions are not shown. Lines headed by an entry give the natural chain unless they say otherwise; changes in a name come on top.
UniProt O60671: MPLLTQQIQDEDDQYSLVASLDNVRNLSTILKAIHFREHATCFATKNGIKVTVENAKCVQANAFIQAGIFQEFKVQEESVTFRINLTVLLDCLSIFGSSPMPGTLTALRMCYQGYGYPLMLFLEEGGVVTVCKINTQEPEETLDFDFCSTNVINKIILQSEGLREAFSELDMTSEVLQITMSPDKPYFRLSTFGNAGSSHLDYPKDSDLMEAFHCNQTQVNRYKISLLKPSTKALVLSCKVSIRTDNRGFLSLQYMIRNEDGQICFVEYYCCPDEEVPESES
UniProt Q7Z6M1: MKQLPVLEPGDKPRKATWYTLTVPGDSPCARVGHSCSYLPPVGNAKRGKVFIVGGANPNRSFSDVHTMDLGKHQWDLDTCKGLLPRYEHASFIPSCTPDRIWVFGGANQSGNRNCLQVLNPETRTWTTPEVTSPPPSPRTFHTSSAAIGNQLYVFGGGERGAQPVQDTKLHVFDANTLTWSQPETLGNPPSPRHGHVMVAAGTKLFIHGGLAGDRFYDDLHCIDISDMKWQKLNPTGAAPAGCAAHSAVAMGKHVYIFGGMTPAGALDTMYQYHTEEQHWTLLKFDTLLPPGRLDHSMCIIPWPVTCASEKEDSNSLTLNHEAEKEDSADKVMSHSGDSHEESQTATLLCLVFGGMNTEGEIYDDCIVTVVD
UniProt Q9UJ41, whole entry, looked up: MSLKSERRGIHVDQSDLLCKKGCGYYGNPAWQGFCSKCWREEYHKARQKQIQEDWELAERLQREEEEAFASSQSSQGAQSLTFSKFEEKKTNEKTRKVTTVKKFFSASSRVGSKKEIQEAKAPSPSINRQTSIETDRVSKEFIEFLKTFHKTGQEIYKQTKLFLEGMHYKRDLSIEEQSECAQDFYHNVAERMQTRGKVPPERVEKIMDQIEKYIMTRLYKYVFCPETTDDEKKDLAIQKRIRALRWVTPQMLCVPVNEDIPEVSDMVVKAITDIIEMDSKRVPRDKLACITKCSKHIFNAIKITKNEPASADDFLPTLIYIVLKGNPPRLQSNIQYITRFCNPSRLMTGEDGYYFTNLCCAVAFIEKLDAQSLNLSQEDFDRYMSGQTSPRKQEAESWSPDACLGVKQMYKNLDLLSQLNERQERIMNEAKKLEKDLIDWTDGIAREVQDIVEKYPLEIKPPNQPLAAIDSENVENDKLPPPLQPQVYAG
UniProt O60518: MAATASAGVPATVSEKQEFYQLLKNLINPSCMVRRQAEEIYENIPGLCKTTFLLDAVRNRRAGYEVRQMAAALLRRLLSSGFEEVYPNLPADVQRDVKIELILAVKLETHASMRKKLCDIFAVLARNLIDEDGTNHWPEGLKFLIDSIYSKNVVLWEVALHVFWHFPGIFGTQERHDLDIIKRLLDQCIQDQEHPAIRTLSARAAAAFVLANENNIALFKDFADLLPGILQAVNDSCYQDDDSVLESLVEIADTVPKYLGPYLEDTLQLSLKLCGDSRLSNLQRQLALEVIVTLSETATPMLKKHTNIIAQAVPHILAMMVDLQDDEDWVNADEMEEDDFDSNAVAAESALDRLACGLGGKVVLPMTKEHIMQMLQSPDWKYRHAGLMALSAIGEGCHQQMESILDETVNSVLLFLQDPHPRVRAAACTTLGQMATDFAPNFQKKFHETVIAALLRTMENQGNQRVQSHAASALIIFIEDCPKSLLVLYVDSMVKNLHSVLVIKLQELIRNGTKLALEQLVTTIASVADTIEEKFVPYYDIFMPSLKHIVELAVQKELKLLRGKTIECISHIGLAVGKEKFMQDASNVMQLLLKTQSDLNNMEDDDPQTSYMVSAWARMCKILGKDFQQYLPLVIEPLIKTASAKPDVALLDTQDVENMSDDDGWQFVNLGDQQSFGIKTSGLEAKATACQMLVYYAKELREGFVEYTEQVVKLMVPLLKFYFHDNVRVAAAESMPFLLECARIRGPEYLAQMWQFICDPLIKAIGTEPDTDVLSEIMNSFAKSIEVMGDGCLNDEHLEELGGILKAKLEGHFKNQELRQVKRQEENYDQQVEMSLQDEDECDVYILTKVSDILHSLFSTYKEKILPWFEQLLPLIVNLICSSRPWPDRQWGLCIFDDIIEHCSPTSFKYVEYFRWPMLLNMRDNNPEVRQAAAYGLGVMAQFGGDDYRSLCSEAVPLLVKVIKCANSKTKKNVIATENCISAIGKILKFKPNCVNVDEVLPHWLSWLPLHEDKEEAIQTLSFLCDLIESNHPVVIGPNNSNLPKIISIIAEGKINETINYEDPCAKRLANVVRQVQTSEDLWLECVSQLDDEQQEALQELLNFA
UniProt Q15276: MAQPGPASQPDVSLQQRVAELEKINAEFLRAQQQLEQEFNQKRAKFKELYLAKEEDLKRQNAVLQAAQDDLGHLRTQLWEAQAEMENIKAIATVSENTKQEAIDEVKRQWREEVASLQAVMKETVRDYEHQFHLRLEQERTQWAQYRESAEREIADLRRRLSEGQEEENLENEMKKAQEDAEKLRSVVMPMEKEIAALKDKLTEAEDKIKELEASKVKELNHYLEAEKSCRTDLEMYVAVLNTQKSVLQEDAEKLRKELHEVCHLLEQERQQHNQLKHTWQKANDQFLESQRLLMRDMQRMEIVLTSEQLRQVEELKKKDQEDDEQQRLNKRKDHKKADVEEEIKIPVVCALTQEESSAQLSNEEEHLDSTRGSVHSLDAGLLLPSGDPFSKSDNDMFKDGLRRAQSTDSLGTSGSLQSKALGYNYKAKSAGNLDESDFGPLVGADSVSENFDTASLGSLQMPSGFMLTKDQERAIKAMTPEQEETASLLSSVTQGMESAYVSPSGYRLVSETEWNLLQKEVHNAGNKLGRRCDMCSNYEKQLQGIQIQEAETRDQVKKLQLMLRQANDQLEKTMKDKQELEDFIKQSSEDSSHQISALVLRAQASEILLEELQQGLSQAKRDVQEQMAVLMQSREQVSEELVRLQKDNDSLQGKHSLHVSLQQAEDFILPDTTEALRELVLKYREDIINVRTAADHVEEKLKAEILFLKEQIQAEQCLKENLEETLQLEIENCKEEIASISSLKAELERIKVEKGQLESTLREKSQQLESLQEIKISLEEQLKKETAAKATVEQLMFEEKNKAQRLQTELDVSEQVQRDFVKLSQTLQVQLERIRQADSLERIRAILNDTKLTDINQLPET
UniProt Q6GYQ0: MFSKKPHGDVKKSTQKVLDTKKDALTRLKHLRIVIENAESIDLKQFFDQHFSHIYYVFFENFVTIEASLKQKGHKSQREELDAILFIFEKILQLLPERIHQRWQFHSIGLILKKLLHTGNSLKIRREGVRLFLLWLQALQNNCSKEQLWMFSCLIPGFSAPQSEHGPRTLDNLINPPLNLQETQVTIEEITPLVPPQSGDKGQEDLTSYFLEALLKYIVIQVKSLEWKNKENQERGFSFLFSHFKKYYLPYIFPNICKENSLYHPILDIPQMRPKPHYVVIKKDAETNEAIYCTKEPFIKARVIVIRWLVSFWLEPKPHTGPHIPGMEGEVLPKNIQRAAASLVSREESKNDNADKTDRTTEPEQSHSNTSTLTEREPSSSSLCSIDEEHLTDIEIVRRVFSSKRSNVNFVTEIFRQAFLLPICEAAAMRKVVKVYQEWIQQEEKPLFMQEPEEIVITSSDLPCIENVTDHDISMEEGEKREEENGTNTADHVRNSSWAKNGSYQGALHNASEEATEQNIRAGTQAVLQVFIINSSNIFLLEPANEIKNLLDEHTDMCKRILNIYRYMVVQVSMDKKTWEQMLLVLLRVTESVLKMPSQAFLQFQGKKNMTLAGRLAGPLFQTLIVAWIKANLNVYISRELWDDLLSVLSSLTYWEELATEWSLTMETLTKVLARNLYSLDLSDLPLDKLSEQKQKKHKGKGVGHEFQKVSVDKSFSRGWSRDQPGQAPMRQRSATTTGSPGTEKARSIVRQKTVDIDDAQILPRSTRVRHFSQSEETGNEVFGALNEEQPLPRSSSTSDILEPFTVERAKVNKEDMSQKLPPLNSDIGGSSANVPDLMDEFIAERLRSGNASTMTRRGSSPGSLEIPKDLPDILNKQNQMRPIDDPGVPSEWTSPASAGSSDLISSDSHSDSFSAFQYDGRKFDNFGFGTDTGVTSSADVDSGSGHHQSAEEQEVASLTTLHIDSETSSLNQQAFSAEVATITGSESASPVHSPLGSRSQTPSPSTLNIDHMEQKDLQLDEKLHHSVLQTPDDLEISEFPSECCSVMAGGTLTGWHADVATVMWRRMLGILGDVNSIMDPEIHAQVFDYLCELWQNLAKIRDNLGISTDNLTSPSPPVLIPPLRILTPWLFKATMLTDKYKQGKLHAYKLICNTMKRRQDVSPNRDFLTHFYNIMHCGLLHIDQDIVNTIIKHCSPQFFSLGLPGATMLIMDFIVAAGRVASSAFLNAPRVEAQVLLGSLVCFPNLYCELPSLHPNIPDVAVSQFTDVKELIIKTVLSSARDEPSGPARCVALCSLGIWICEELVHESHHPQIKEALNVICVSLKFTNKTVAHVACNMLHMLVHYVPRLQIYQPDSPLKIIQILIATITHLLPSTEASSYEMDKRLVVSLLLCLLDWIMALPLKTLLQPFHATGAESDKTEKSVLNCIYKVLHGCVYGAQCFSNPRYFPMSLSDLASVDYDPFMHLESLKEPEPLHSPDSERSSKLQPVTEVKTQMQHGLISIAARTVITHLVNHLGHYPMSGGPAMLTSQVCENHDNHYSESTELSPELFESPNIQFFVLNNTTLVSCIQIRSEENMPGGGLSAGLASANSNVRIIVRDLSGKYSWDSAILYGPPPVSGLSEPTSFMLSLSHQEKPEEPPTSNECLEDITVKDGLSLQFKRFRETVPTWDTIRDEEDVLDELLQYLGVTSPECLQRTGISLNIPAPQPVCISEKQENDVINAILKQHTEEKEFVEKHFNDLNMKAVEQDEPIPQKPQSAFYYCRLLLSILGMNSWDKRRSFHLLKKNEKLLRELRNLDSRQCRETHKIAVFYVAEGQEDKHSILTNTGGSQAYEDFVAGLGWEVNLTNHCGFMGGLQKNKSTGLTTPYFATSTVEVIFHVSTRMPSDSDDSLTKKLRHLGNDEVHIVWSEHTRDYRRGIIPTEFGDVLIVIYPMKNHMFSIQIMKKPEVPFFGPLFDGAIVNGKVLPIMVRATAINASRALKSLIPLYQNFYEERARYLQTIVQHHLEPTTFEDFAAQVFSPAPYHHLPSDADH
UniProt P61020: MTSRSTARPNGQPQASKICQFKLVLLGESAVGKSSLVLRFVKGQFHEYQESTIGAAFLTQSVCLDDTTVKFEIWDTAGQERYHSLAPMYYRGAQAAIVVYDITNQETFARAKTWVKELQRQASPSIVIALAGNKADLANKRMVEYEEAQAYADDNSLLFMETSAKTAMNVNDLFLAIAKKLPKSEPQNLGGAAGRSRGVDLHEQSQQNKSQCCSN
UniProt P20339: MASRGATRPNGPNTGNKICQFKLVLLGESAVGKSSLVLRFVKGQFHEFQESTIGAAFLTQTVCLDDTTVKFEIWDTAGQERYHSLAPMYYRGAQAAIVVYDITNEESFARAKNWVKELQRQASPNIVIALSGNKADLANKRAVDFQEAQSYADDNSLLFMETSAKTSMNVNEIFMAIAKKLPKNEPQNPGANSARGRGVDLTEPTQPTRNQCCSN
UniProt P61026: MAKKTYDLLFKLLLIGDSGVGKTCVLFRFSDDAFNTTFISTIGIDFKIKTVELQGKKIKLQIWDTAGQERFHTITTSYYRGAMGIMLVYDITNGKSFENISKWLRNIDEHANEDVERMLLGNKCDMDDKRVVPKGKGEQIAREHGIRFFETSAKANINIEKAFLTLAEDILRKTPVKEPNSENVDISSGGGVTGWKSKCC
UniProt P61225: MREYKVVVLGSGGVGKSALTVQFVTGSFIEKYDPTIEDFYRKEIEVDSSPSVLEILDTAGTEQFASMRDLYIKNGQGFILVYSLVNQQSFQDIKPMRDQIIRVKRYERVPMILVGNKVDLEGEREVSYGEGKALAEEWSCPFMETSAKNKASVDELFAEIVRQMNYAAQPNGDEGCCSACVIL
UniProt P20340: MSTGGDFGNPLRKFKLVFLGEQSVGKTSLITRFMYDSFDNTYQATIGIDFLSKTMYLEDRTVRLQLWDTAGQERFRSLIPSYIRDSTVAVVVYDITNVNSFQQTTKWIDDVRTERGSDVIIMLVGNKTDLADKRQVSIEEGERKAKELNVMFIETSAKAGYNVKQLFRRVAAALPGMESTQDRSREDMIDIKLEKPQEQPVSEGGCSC
UniProt Q9NX57: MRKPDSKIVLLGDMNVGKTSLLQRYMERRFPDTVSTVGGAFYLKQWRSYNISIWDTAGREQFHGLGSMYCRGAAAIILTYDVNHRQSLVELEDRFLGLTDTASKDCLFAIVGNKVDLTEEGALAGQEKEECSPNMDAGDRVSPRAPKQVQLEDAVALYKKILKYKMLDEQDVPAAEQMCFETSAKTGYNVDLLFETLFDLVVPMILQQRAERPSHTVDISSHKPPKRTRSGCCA
UniProt Q9Y3L5: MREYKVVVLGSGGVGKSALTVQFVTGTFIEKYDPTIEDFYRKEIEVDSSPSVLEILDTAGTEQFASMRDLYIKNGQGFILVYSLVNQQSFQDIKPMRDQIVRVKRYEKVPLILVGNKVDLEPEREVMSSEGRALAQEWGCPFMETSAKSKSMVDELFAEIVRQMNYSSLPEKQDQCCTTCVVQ

Compound in this test: C1=CC2=NC=CN=C2C=C1/C=C/3\C(=O)NC(=O)S3
In words: log2 fold change, soluble protein after heating vs DMSO (PISA); higher = thermal stabilisation; K562 lysate, 10 uM; active = over 0.2 and 3.5 SD of the protein, either way, in both replicates (recomputed). In a few lines:
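The values are log-two fold changes in thermal stability compared with solvent controls and come from duplicates. They were obtained by TMTpro 16plex LC-MS/MS, with channel sums equalised, on the supernatant after 21,000xg for 90 min. That supernatant came from crude K562 extract at 1 mg/mL protein treated with 10 μM compound for 30 min, heated for 3 min across 48°C-58°C, pooled and brought to 0.5% NP-40 at 4°C.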
As for RACGAP1 (UniProt Q9H0H5), the log2 fold change is inactive: -0.022.

Regarding RAD1 (UniProt O60671), the log2 fold change was inactive: 0.025.

Take RAC2 (UniProt P15153): the log2 fold change was inactive: -0.01.

On to RABEPK (UniProt Q7Z6M1), for which the log2 fold change is inactive: 0.032.

With RANBP9 (UniProt Q96S59), the log2 fold change is inactive: -0.007.

In the case of RAD51C (UniProt O43502), the log2 fold change was inactive: -0.003.

With RABGEF1 isoform 3 (UniProt Q9UJ41), the log2 fold change is inactive: -0.033.

With RANBP6 (UniProt O60518), the log2 fold change was inactive: 0.061.

For RABEP1 (UniProt Q15276), the log2 fold change is inactive: -0.006.

Take RALGAPA1 isoform 6 (UniProt Q6GYQ0): the log2 fold change was inactive: -0.105.

With RABAC1 (UniProt Q9UI14), the log2 fold change was inactive: 0.003.

Consider RAB5B (UniProt P61020), for which the log2 fold change is inactive: -0.029.

Turning to RAB6B (UniProt Q9NRW1), the log2 fold change was inactive: -0.038.

Consider RAB5A (UniProt P20339), for which the log2 fold change is inactive: 0.026.

On to RAB24 (UniProt Q969Q5), for which the log2 fold change was inactive: 0.029.

On to PYCR3 (UniProt Q53H96), for which the log2 fold change is inactive: 0.058.

Turning to RAB10 (UniProt P61026), the log2 fold change is inactive: -0.078.

Turning to RAN (UniProt P62826), the log2 fold change was inactive: -0.003.

As for RAP2B (UniProt P61225), the log2 fold change was inactive: -0.023.

Regarding RAB8B (UniProt Q92930), the log2 fold change is inactive: 0.004.

RAB6A isoform 4 (UniProt P20340): the log2 fold change was inactive: 0.008.

In the case of RAB20 (UniProt Q9NX57), the log2 fold change was inactive: 0.072.

Regarding RAP2C (UniProt Q9Y3L5), the log2 fold change is inactive: -0.008.

The values above are taken from the supplement of paper PMC10849652.
